# Measurements from paper PMC7819943, “Rice protein-binding microarrays: a tool to detect cis-acting elements near promoter regions in rice”.
# Amino acid sequences for entries named in this document (tags omitted).
# UniProt Q0JBA9, entry or part of it: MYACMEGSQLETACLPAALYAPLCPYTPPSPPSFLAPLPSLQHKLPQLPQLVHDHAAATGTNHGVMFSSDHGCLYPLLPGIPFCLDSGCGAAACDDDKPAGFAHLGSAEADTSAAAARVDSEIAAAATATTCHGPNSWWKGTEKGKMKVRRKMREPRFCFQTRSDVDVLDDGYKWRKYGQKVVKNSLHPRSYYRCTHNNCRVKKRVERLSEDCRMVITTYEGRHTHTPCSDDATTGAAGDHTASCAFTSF
# The list shows a part of the results.
# Target: OsWRKY34 (Oryza sativa, UniProt Q0JBA9 1-250)
# Assay: protein-binding microarray (RPBM); PBS, 2% BSA, 51.3 ng/ul salmon testes DNA, 50 uM zinc acetate, 200 nM TF, 25 C, 1 h; high values mean tight binding
# Conditions: protein: recombinant; tags: N-terminal polyhistidine and DsRed monomer fusion (pET32a); label: CyDye5-dUTP incorporated in the synthesized complementary strand; 3' TTTTT single-stranded linker to array surface; dsDNA, one strand shown
# How it was run: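 The binding signal is fluorescence intensity per array feature (arbitrary units). Readings came from an Axon 4000B scanner after a washed, 2% BSA-blocked, double-stranded custom Agilent array had been incubated for 1 h at 25 °C with 200 nM protein and 50 µM zinc acetate. The protein was a Ni–NTA-purified transcription factor fused N-terminally to polyhistidine and DsRed, expressed in E. coli BL21-CodonPlus.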
row,Sequence,binding signal
1,CAAAGCCATTGGTCCCATATTATGCTTTCCAAGTAGCTTTCGGAGTCACCTAGTGCAG,8580 fluorescence intensity (a.u.)
2,CGACAACTGCTGCTCACCTACTCTCCACCTCTCCCAGTCTCGGAGTCACCTAGTGCAG,8370 fluorescence intensity (a.u.)
3,CTCGCCGCCGTTCGTCTCCGCCGCCACCGCCGCCGCCATGCGGAGTCACCTAGTGCAG,11300 fluorescence intensity (a.u.)
4,TGATACGATGACGTTTGGGTGGTTGGATATATATCATGATCGGAGTCACCTAGTGCAG,9450 fluorescence intensity (a.u.)
5,CGTCCCGCACTCCGTCAACACCTCGTCGGCGCTCAACTTCCGGAGTCACCTAGTGCAG,11200 fluorescence intensity (a.u.)
6,GTGGGGTGGGTGAGCGGGATGCGGGGCTTAGGCGGGGAAGCGGAGTCACCTAGTGCAG,16500 fluorescence intensity (a.u.)
7,CAAATATCTCTAATATGCAGGCTGCTTGTATTATCCGTATCGGAGTCACCTAGTGCAG,8110 fluorescence intensity (a.u.)
8,TGCCATGTCACCGCGATGTTGATTTATGACTGGATTTCACCGGAGTCACCTAGTGCAG,8530 fluorescence intensity (a.u.)
9,TCCATGGCGGCTGGCTATACCTTTCTGCACTACATTTGCACGGAGTCACCTAGTGCAG,8150 fluorescence intensity (a.u.)
10,AACAAACGTGGCATTATCAACCTTTACATGTCTTAGGCTTCGGAGTCACCTAGTGCAG,9260 fluorescence intensity (a.u.)
11,ATTCCTGACTCCCTCCTCCTCCACCTCCACCGTCTCGTCTCGGAGTCACCTAGTGCAG,8470 fluorescence intensity (a.u.)
12,CGTGACCTTGTTTGTATATCCACATACGCGAGTTCACATCCGGAGTCACCTAGTGCAG,8890 fluorescence intensity (a.u.)
13,CTCTTATTCTATTTATGTTTGTGCTGTAATCTCCGCTCTTCGGAGTCACCTAGTGCAG,8680 fluorescence intensity (a.u.)
14,TCCCTACACTCTACGTACGTACAGTACTCCTATACAGCAACGGAGTCACCTAGTGCAG,11300 fluorescence intensity (a.u.)
15,CCGTCATTAGCAAATATTTACTGTAGCATCATATTACATTCGGAGTCACCTAGTGCAG,8110 fluorescence intensity (a.u.)
16,CTCCCACCACCTTTCTTTGCTTTCTTTGACCACCACCATTCGGAGTCACCTAGTGCAG,11300 fluorescence intensity (a.u.)
17,ACTTTCTAGCACTGCCTACATTATTATATATGTTAATGAACGGAGTCACCTAGTGCAG,10900 fluorescence intensity (a.u.)
18,ATCCTGGGCCGCCCTTAGACGTGACAACCACACACACACACGGAGTCACCTAGTGCAG,9100 fluorescence intensity (a.u.)
19,ACAGTTAAATTTTAAGCACATGTTTGACTATTCGTCTTATCGGAGTCACCTAGTGCAG,8960 fluorescence intensity (a.u.)
20,TTGTGTCATGTCGTCAAGCTGGCAGGTCAAAGCTAAGCTACGGAGTCACCTAGTGCAG,8760 fluorescence intensity (a.u.)
21,GAACAATTTGTCTTTTGCGTGTATGGTTCCCACTTTCCCACGGAGTCACCTAGTGCAG,8510 fluorescence intensity (a.u.)
22,TCCCGTCTCGTTCTCGTTACTGTCTCCTCCGCTCCTCTCCCGGAGTCACCTAGTGCAG,8550 fluorescence intensity (a.u.)
23,AAGAGAGTTTAGGGGTACACATTTCTGGTTTTGTAGTTAACGGAGTCACCTAGTGCAG,8180 fluorescence intensity (a.u.)
24,GTGTAGCTTATCTGCAAGCGAGTTTGTGTAATGTCCTATTCGGAGTCACCTAGTGCAG,8760 fluorescence intensity (a.u.)
25,ATGACAAAATCACGCGTCATGCAGAATCCTCACTGCATTTCGGAGTCACCTAGTGCAG,8100 fluorescence intensity (a.u.)
26,CCGCCACCCTACGGCTCTCCACCACACTGCCATCCACTACCGGAGTCACCTAGTGCAG,9190 fluorescence intensity (a.u.)
27,GTTGCCTTTCTTTCGCGCTCAGTCTCTCTCGGCCAATTAACGGAGTCACCTAGTGCAG,9280 fluorescence intensity (a.u.)

# Reprinted from the results shown (2 entries):
row,Sequence,binding signal
19,ACAGTTAAATTTTAAGCACATGTTTGACTATTCGTCTTATCGGAGTCACCTAGTGCAG,8960 fluorescence intensity (a.u.)
20,TTGTGTCATGTCGTCAAGCTGGCAGGTCAAAGCTAAGCTACGGAGTCACCTAGTGCAG,8760 fluorescence intensity (a.u.)

# (listing goes on)

row,Sequence,binding signal
1,ACAGAGTCGCCCGGTCAGACCGCGGGCTGACCGGTCTGACCGGAGTCACCTAGTGCAG,8170 fluorescence intensity (a.u.)
2,TACTCCCTCTGTTTTTTAATAGATGACGCCGTTGACTTTTCGGAGTCACCTAGTGCAG,17100 fluorescence intensity (a.u.)
3,CTCCCTCCGTTTCTAAATATTTGATACCGTTGACTTTTTACGGAGTCACCTAGTGCAG,22300 fluorescence intensity (a.u.)
4,ACTAGTAATGCCACGCATCGTATTATCCAATCTGAGATACCGGAGTCACCTAGTGCAG,8220 fluorescence intensity (a.u.)
5,AAACACGGACCTCCGGACCCACCCCATCCACCGTACACGTCGGAGTCACCTAGTGCAG,8580 fluorescence intensity (a.u.)
6,GGTGACGGCTGGTGTGGGTGTAGGGTGGCCGCGCGGTACGCGGAGTCACCTAGTGCAG,9460 fluorescence intensity (a.u.)
7,CTCCACACCACTAGCTAGTAATGTGGCCGCTCTCTCCTCACGGAGTCACCTAGTGCAG,8070 fluorescence intensity (a.u.)
8,GAATGATCCCACCTTTGCACATTGTGATTTTAATGTTTTCCGGAGTCACCTAGTGCAG,9170 fluorescence intensity (a.u.)
9,TTGTATACTTGTAATCACGTGCTATCTTTTCGCTGTTGCACGGAGTCACCTAGTGCAG,8990 fluorescence intensity (a.u.)
10,GTCCCTCCATGCACGCCCAAATAGCCAGTCACCTCCGCTCCGGAGTCACCTAGTGCAG,8270 fluorescence intensity (a.u.)
11,GCCTCAAACATCTCCACGCAGAAGGCAACTGCATCATCCACGGAGTCACCTAGTGCAG,9170 fluorescence intensity (a.u.)
12,TATATATATATATATATATGTGTGTGTGTGTGTGTATGGTCGGAGTCACCTAGTGCAG,9770 fluorescence intensity (a.u.)
13,AGAAGTGGTCTTGGTGGTTAGTTGTTTCCGTTGTATTCGTCGGAGTCACCTAGTGCAG,10200 fluorescence intensity (a.u.)
14,GTACTATTTCGCTTCGCCTCTCCTCTCTACCTCCGTCGCCCGGAGTCACCTAGTGCAG,8870 fluorescence intensity (a.u.)
15,GATACCGTTGACTTTTTAGCACATATTTGACCGTTCGTCTCGGAGTCACCTAGTGCAG,39400 fluorescence intensity (a.u.)
16,GAACCTAGAAATATTGTCTGTTTTCCTGCCGAACTGAACTCGGAGTCACCTAGTGCAG,9900 fluorescence intensity (a.u.)
17,TGAAGTTGATTATAGGTTTATTTTTTATGTTGGTTTTTAACGGAGTCACCTAGTGCAG,10200 fluorescence intensity (a.u.)
18,GCGCTCGTCGACGTCCTCCTGCGGTACATCTGCCAGCTCGCGGAGTCACCTAGTGCAG,8180 fluorescence intensity (a.u.)
19,TCATTGTGCTTTGAAAGGGCTGGGTGCAGTTGTTAATTTCCGGAGTCACCTAGTGCAG,12900 fluorescence intensity (a.u.)
20,ACTAGTACTTTTGCATACCAAAACTTTTACTATTTGCCATCGGAGTCACCTAGTGCAG,8570 fluorescence intensity (a.u.)
21,TTTCCTTTTACCTTTTCTCTTTGAAGAAAAAGAATTCGTCCGGAGTCACCTAGTGCAG,8240 fluorescence intensity (a.u.)
22,TCTTTTCTTTGACTGTCATGTTGCACGTTTTGCTTGGCGACGGAGTCACCTAGTGCAG,10400 fluorescence intensity (a.u.)
23,CGTCAGTCATCACTTTACTAATTTGAACTGATGTCGATCGCGGAGTCACCTAGTGCAG,8410 fluorescence intensity (a.u.)
24,CCTGGTTGGTTTGGCTCGCACGTGGCGCGTCGTCCTACGCCGGAGTCACCTAGTGCAG,9870 fluorescence intensity (a.u.)
25,GCAATCTTTGTGTTCCAACGGCTCCGCGGGTTCCATGCAACGGAGTCACCTAGTGCAG,8630 fluorescence intensity (a.u.)
26,TTATCTGCTTTGCTCGTTTCATCCAACGAGCCGAGCTACCCGGAGTCACCTAGTGCAG,9240 fluorescence intensity (a.u.)
27,TCTCTTTTGTGCACTTGGGAATGTAATTTTCTATCACTATCGGAGTCACCTAGTGCAG,8870 fluorescence intensity (a.u.)

# Copied from the list:
# Value for TATATATATATATATATATGTGTGTGTGTGTGTGTATGGTCGGAGTCACCTAGTGCAG under binding signal: 9770 fluorescence intensity (a.u.)
# Value for ACAGAGTCGCCCGGTCAGACCGCGGGCTGACCGGTCTGACCGGAGTCACCTAGTGCAG under binding signal: 8170 fluorescence intensity (a.u.)
